Patent US8906925B2, “Pyrido[4,3-B]indoles containing rigid moieties” (Medivation Technologies, Inc., priority 2008, dated 2014)

Tested on: Sprague Dawley rats

**Q.** `COc1cc2c(cc1OC)C(=O)C(CC1CCN(Cc3ccccc3)CC1)C2` (centres unmarked) [donepezil, reference compound] was tested. Which “number of "good learners" (Δ≧5 sec.)” value (1 mg/kg i.p.) did it give?
**A.** confirmed the cognitive enhancing activity

**Q.** What about the “procognitive activity (natural forgetting)” value (1 mg/kg, i.p., 30 min before T1, positive reference) of the same compound?
**A.** displayed a clear procognitive activity
